Some of these results come from one statement about several compounds together.
Legend:
Assay type in all cases: in vivo
Sogatella furcifera = experiment: Insecticidal test against Sogatella furcifera, spray on rice seedling; conditions: 100 ppm; acetone solution sprayed on rice seedling; 10 young larvae; 25° C.; after 6 days
Protocol: Insecticidal Test Against Sogatella furcifera
(§1) 2.5 ml of an acetone solution prepared to have a predetermined concentration of the test compound was sprayed on a rice (Oryza sativa) seedling, and the rice seedling was transferred to a glass tube in which water was retained. After air drying, 10 young larvae were released into the glass tube, and the glass tube was covered with a sponge stopper. The glass tube was allowed to stand in a thermostatic chamber at 25° C., and the numbers of living insects and dead insects were examined after 6 days.

Nilaparvata lugens = experiment: Insecticidal test against Nilaparvata lugens, spray on rice seedling; conditions: 100 ppm; acetone solution sprayed on rice seedling; 10 young larvae; 25° C.; after 6 days
Protocol: Insecticidal Test Against Nilaparvata lugens
as §1

Myzus persicae = experiment: Insecticidal test against Myzus persicae, spray on radish leaves; conditions: 100 ppm; 20% acetone aqueous solution sprayed on radish leaves; 25 young larvae; 25° C.; after 5 days
Protocol: Insecticidal Test Against Myzus persicae
2.5 ml of a 20% acetone aqueous solution prepared to have a predetermined concentration of the test compound was sprayed on the leaves of radish (Raphanus sativus) in which the roots retained water and 25 young larvae were parasitized. After air drying, it was allowed to stand in a thermostatic chamber at 25° C., and the number of living insects and the number of dead insects were examined after 5 days.

| Structure (SMILES) | mortality rate (Sogatella furcifera) | mortality rate (Nilaparvata lugens) | mortality rate (Myzus persicae) |
| --- | --- | --- | --- |
| CCS(=O)(=O)c1c(-c2nc3cc(C(F)(F)F)ncn3n2)nn(C)c1NC(=O)C(F)(F)C(F)(F)F [compound 23] | ≥ 50% | ≥ 50% | ≥ 50% |
| CCS(=O)(=O)c1c(-c2cn3cnc(C(F)(F)F)cc3n2)nn(C)c1N(C)C(=O)C(F)(F)C(F)(F)F [compound 34] | ≥ 50% | ≥ 50% | ≥ 50% |
| CCS(=O)(=O)c1c(-c2cn3cnc(C(F)(F)F)cc3n2)nn(C)c1N(C)C(=O)C(F)(F)C(F)(F)C(F)(F)F [compound 36] | ≥ 50% | ≥ 50% | ≥ 50% |
| CCOC(=O)Nc1c(S(=O)(=O)CC)c(-c2cn3cnc(C(F)(F)F)cc3n2)nn1C [compound 44] | ≥ 50% | ≥ 50% | ≥ 50% |
| CCCOC(=O)Nc1c(S(=O)(=O)CC)c(-c2cn3cnc(C(F)(F)F)cc3n2)nn1C [compound 45] | – | ≥ 50% | ≥ 50% |
| CCn1nc(-c2cn3cnc(C(F)(F)F)cc3n2)c(S(=O)(=O)CC)c1NC(=O)C(F)(F)C(F)(F)C(F)(F)F [compound 66] | ≥ 50% | ≥ 50% | ≥ 50% |
| CCS(=O)(=O)c1c(-c2cn3cnc(C(F)(F)F)cc3n2)nn(C)c1NC(=O)C1CC1 [compound 68] | ≥ 50% | ≥ 50% | ≥ 50% |
| CCSc1c(-c2cn3cnc(C(F)(F)F)cc3n2)nn(C)c1NC(=O)CC(F)(F)F [compound 69] | ≥ 50% | – | ≥ 50% |
| CCS(=O)(=O)c1c(-c2cn3cnc(C(F)(F)F)cc3n2)nn(C)c1NC(=O)Cn1cncn1 [compound 75] | ≥ 50% | ≥ 50% | ≥ 50% |
| CCCn1nc(-c2cn3cnc(C(F)(F)F)cc3n2)c(S(=O)(=O)CC)c1NC(=O)C(F)(F)C(F)(F)F [compound 98] | ≥ 50% | ≥ 50% | ≥ 50% |
| CCCn1nc(-c2cn3cnc(C(F)(F)F)cc3n2)c(S(=O)(=O)CC)c1NC(=O)C(F)(F)C(F)(F)C(F)(F)F [compound 99] | ≥ 50% | ≥ 50% | ≥ 50% |
| CCCn1nc(-c2cn3cnc(C(F)(F)F)cc3n2)c(S(=O)(=O)CC)c1NC(C)=O [compound 102] | – | ≥ 50% | ≥ 50% |
| CCCn1nc(-c2cn3cnc(C(F)(F)F)cc3n2)c(S(=O)(=O)CC)c1NC(=O)CC [compound 104] | – | ≥ 50% | ≥ 50% |
| CCSc1c(-c2cn3cnc(C(F)(F)F)cc3n2)nn(C)c1NC(=O)C(C)(F)F [compound 107] | ≥ 50% | ≥ 50% | ≥ 50% |
| CCS(=O)(=O)c1c(-c2cn3cnc(C(F)(F)F)cc3n2)nn(C)c1NC(=O)C(C)(F)F [compound 109] | ≥ 50% | ≥ 50% | ≥ 50% |
| CCS(=O)(=O)c1c(-c2cn3cnc(C(F)(F)F)cc3n2)nn(C)c1N(C(C)=O)C(C)=O [compound 110] | ≥ 50% | ≥ 50% | ≥ 50% |
| CCSc1c(-c2cn3cnc(C(F)(F)F)cc3n2)nn(CC)c1NC(=O)C(F)F [compound 111] | ≥ 50% | ≥ 50% | ≥ 50% |
| CCn1nc(-c2cn3cnc(C(F)(F)F)cc3n2)c(S(=O)(=O)CC)c1NC(=O)C(F)F [compound 112] | ≥ 50% | ≥ 50% | ≥ 50% |
| CCSc1c(-c2cn3cnc(C(F)(F)F)cc3n2)nn(CC)c1NC(=O)C(F)(F)C(F)F [compound 113] | ≥ 50% | ≥ 50% | ≥ 50% |

| Structure (SMILES) | mortality rate (Sogatella furcifera) | mortality rate (Nilaparvata lugens) | mortality rate (Myzus persicae) |
| --- | --- | --- | --- |
| CCn1nc(-c2cn3cnc(C(F)(F)F)cc3n2)c(S(=O)(=O)CC)c1NC(=O)C(F)(F)C(F)F [compound 115] | ≥ 50% | ≥ 50% | ≥ 50% |
| CCCn1nc(-c2cn3cnc(C(F)(F)F)cc3n2)c(S(=O)(=O)CC)c1NC(=O)C(F)F [compound 116] | ≥ 50% | ≥ 50% | ≥ 50% |
| CCSc1c(-c2cn3cnc(C(F)(F)F)cc3n2)nn(C)c1NC(=O)C(F)(F)Cl [compound 117] | ≥ 50% | ≥ 50% | ≥ 50% |
| CCSc1c(-c2cn3cnc(C(F)(F)F)cc3n2)nn(C)c1NC(=O)C(Cl)Cl [compound 118] | ≥ 50% | ≥ 50% | ≥ 50% |
| CCCn1nc(-c2cn3cnc(C(F)(F)F)cc3n2)c(SCC)c1NC(=O)C(F)(F)C(F)F [compound 121] | ≥ 50% | ≥ 50% | ≥ 50% |
| CCS(=O)(=O)c1c(-c2nc3cc(C(F)(F)F)ncn3c2Br)nn(C)c1NC(=O)C(F)(F)F [compound 123] | ≥ 50% | ≥ 50% | ≥ 50% |
| CCS(=O)(=O)c1c(-c2nc3cc(C(F)(F)F)ncn3c2Cl)nn(C)c1NC(=O)C(F)(F)F [compound 124] | ≥ 50% | ≥ 50% | ≥ 50% |
| CCSc1c(-c2cn3cnc(C(F)(F)F)cc3n2)nn(C)c1NC(=O)C(F)(F)C(F)(F)Cl [compound 125] | ≥ 50% | ≥ 50% | ≥ 50% |
| CCSc1c(-c2cn3cnc(C(F)(F)F)cc3n2)nn(C)c1NC(=O)N(C)C [compound 133] | – | – | ≥ 50% |
| CCSc1c(-c2cn3cnc(C(F)(F)F)cc3n2)nn(C)c1NS(C)(=O)=O [compound 148] | – | – | ≥ 50% |
| CCSc1c(-c2cn3cnc(C(F)(F)F)cc3n2)nn(CC(F)(F)F)c1NC(=O)C(F)(F)F [compound 150] | – | ≥ 50% | ≥ 50% |
| CCS(=O)(=O)c1c(-c2cn3cnc(C(F)(F)F)cc3n2)nn(CC(F)(F)F)c1NC(C)=O [compound 160] | – | – | ≥ 50% |
| CCS(=O)(=O)c1c(-c2cn3cnc(C(F)(F)F)cc3n2)nn(C)c1NC(=O)N(C)C [compound 167] | – | – | ≥ 50% |
| CCS(=O)(=O)c1c(-c2cn3cnc(C(F)(F)F)cc3n2)nn(C)c1NC(=O)C(F)(F)C(F)(F)C(F)(F)F [compound 205] | – | ≥ 50% | ≥ 50% |
| CCSc1c(-c2cn3c(C)nc(C(F)(F)F)cc3n2)nn(C)c1NC(C)=O [compound 221] | – | ≥ 50% | ≥ 50% |
| CCS(=O)(=O)c1c(-c2cn3c(S(C)(=O)=O)nc(C(F)(F)F)cc3n2)nn(C)c1NC(=O)C(F)(F)F [compound 233] | – | – | ≥ 50% |
| CCCOc1nc(C(F)(F)F)cc2nc(-c3nn(C)c(NC(=O)C(F)(F)F)c3S(=O)(=O)CC)cn12 [compound 272] | – | ≥ 50% | ≥ 50% |
| CCS(=O)(=O)c1c(-c2cn3cnc(C(F)(F)F)cc3n2)nn(C)c1NC(=O)C1(C)CC1 [compound 379] | – | – | ≥ 50% |
| CCOC=CC(=O)Nc1c(S(=O)(=O)CC)c(-c2cn3cnc(C(F)(F)F)cc3n2)nn1C [compound 400] | – | ≥ 50% | ≥ 50% |
